# Experimental data as given in the supplement of paper PMC8728848.
# The list shows a part of the results.
# B1: SUN4 (Saccharomyces cerevisiae), P53616 (protein)
# chain: MGSSHHHHHHSSGLVPRGSHNGSIYGDLADFSGPYEKFEDGTIPCGQFPSGQGVIPISWLDEGGWSGVENTDTSTGGSCKEGSYCSYACQPGMSKTQWPSDQPSDGRSIGGLLCKDGYLYRSNTDTDYLCEWGVDAAYVVSELSNDVAICRTDYPGTENMVIPTYVQAGDSLPLTVVDQDTYYTWQGLKTSAAYYVNNAGISVEDACVWGSSSSGVGNWAPLNFGAGSSDGVAYLSLIPNPNNGNALNFNVKIVAADDSSTVNGECIYENGSFSGGSDGCTVSVTAGKAKFVLYN
# What was measured:
# Assay in all cases: glycan array binding signal (z-score within array); higher = stronger binding
# Settings in all cases: glycan notation: IUPAC condensed, linker removed; mutation: Q318A
# [1] = target: Neu5Ac(a2-6)Gal(b1-4)GlcNAc(b1-2)Man(a1-3)[GlcNAc(b1-4)][Neu5Ac(a2-6)Gal(b1-4)GlcNAc(b1-2)Man(a1-6)]Man(b1-4)GlcNAc(b1-4)GlcNAc
# Summary of the method: (§1)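 Glycan array data were curated from 3228 arrays in the Consortium for Functional Glycomics database and kept only where the protein sequence was available. Glycan names were converted to IUPAC-condensed notation, and columns mapping to the same glycan were averaged. The binding signal is a within-array Z-score, averaged across arrays of the same protein sequence at different concentrations or buffers and across linkers. Negative Z-scores can be read as non-binding.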
# [2] = target: Neu5Ac(a2-6)Gal(b1-4)GlcNAc(b1-2)Man(a1-3)[Man(a1-6)]Man(b1-4)GlcNAc(b1-4)GlcNAc
# Summary of the method: as §1
# [3] = target: Neu5Ac(a2-6)Gal(b1-4)GlcNAc(b1-2)Man(a1-3)[Neu5Ac(a2-3)Gal(b1-4)GlcNAc(b1-2)Man(a1-6)]Man(b1-4)GlcNAc(b1-4)GlcNAc
# Summary of the method: as §1
# [4] = target: Neu5Ac(a2-6)Gal(b1-4)GlcNAc(b1-2)Man(a1-3)[Neu5Ac(a2-6)Gal(b1-4)GlcNAc(b1-2)Man(a1-6)]Man(b1-4)GlcNAc(b1-4)GlcNAc
# Summary of the method: as §1
# [5] = target: Neu5Ac(a2-6)Gal(b1-4)GlcNAc(b1-2)Man(a1-3)[Neu5Ac(a2-6)Gal(b1-4)GlcNAc(b1-2)Man(a1-6)]Man(b1-4)GlcNAc(b1-4)[Fuc(a1-6)]GlcNAc
# Summary of the method: as §1
# [6] = target: Neu5Ac(a2-6)Gal(b1-4)GlcNAc(b1-2)Man(a1-6)Man(b1-4)GlcNAc(b1-4)GlcNAc
# Summary of the method: as §1
# [7] = target: Neu5Ac(a2-6)Gal(b1-4)GlcNAc(b1-2)Man(a1-6)[Gal(b1-4)GlcNAc(b1-2)Man(a1-3)]Man(b1-4)GlcNAc(b1-4)GlcNAc
# Summary of the method: as §1
# [8] = target: Neu5Ac(a2-6)Gal(b1-4)GlcNAc(b1-2)Man(a1-6)[GlcNAc(b1-2)Man(a1-3)]Man(b1-4)GlcNAc(b1-4)GlcNAc
# Summary of the method: as §1
# [9] = target: Neu5Ac(a2-6)Gal(b1-4)GlcNAc(b1-2)Man(a1-6)[Man(a1-3)]Man(b1-4)GlcNAc(b1-4)GlcNAc
# Summary of the method: as §1
# [10] = target: Neu5Ac(a2-6)Gal(b1-4)GlcNAc(b1-2)[Neu5Ac(a2-6)Gal(b1-4)GlcNAc(b1-4)]Man(a1-3)[GlcNAc(b1-4)][Neu5Ac(a2-6)Gal(b1-4)GlcNAc(b1-2)[Neu5Ac(a2-6)Gal(b1-4)GlcNAc(b1-6)]Man(a1-6)]Man(b1-4)GlcNAc(b1-4)GlcNAc
# Summary of the method: as §1
# [11] = target: Neu5Ac(a2-6)Gal(b1-4)GlcNAc(b1-2)[Neu5Ac(a2-6)Gal(b1-4)GlcNAc(b1-4)]Man(a1-3)[GlcNAc(b1-4)][Neu5Ac(a2-6)Gal(b1-4)GlcNAc(b1-4)Man(a1-6)]Man(b1-4)GlcNAc(b1-4)GlcNAc
# Summary of the method: as §1
# [12] = target: Neu5Ac(a2-6)Gal(b1-4)GlcNAc(b1-2)[Neu5Ac(a2-6)Gal(b1-4)GlcNAc(b1-6)]Man(a1-6)[Neu5Ac(a2-6)Gal(b1-4)GlcNAc(b1-2)Man(a1-3)][GlcNAc(b1-4)]Man(b1-4)GlcNAc(b1-4)GlcNAc
# Summary of the method: as §1
# [13] = target: Neu5Ac(a2-6)Gal(b1-4)GlcNAc(b1-3)Gal(b1-3)GlcNAc
# Summary of the method: as §1
# [14] = target: Neu5Ac(a2-6)Gal(b1-4)GlcNAc(b1-3)Gal(b1-4)GlcNAc
# Summary of the method: as §1
# [15] = target: Neu5Ac(a2-6)Gal(b1-4)GlcNAc(b1-3)Gal(b1-4)GlcNAc(b1-2)Man(a1-3)[Neu5Ac(a2-6)Gal(b1-4)GlcNAc(b1-3)Gal(b1-4)GlcNAc(b1-2)Man(a1-6)]GalNAc
# Summary of the method: as §1
# [16] = target: Neu5Ac(a2-6)Gal(b1-4)GlcNAc(b1-3)Gal(b1-4)GlcNAc(b1-3)Gal(b1-4)GlcNAc
# Summary of the method: as §1
# [17] = target: Neu5Ac(a2-6)Gal(b1-4)GlcNAc(b1-3)Gal(b1-4)GlcNAc(b1-3)Gal(b1-4)GlcNAc(b1-2)Man(a1-3)[Neu5Ac(a2-6)Gal(b1-4)GlcNAc(b1-3)Gal(b1-4)GlcNAc(b1-3)Gal(b1-4)GlcNAc(b1-2)Man(a1-6)]GalNAc
# Summary of the method: as §1
# [18] = target: Neu5Ac(a2-6)Gal(b1-4)GlcNAc(b1-3)Gal(b1-4)GlcNAc(b1-3)GalNAc
# Summary of the method: as §1
# [19] = target: Neu5Ac(a2-6)Gal(b1-4)GlcNAc(b1-3)Gal(b1-4)GlcNAc(b1-3)[Neu5Ac(a2-6)Gal(b1-4)GlcNAc(b1-3)Gal(b1-4)GlcNAc(b1-6)]GalNAc
# Summary of the method: as §1
# [20] = target: Neu5Ac(a2-6)Gal(b1-4)GlcNAc(b1-3)Gal(b1-4)GlcNAc(b1-6)[Gal(b1-3)]GalNAc
# Summary of the method: as §1
# [21] = target: Neu5Ac(a2-6)Gal(b1-4)GlcNAc(b1-3)Gal(b1-4)[Fuc(a1-3)]GlcNAc(b1-3)Gal(b1-4)[Fuc(a1-3)]GlcNAc
# Summary of the method: as §1
# [22] = target: Neu5Ac(a2-6)Gal(b1-4)GlcNAc(b1-3)GalNAc
# Summary of the method: as §1
# [23] = target: Neu5Ac(a2-6)Gal(b1-4)GlcNAc(b1-3)[Neu5Ac(a2-6)Gal(b1-4)GlcNAc(b1-6)]GalNAc
# Summary of the method: as §1
# [24] = target: Neu5Ac(a2-6)Gal(b1-4)GlcNAc(b1-6)GalNAc
# Summary of the method: as §1
# [25] = target: Neu5Ac(a2-6)Gal(b1-4)GlcNAc(b1-6)[Gal(b1-3)GlcNAc(b1-3)]Gal(b1-4)Glc
# Summary of the method: as §1
# [26] = target: Neu5Ac(a2-6)Gal(b1-4)GlcNAc(b1-6)[Gal(b1-3)]GalNAc
# Summary of the method: as §1
# [27] = target: Neu5Ac(a2-6)Gal(b1-4)GlcNAc6S
# Summary of the method: as §1
# [28] = target: Neu5Ac(a2-6)GalNAc
# Summary of the method: as §1
# [29] = target: Neu5Ac(a2-6)GalNAc(b1-4)GlcNAc
# Summary of the method: as §1
# [30] = target: Neu5Ac(a2-6)GalNAc(b1-4)GlcNAc6S
# Summary of the method: as §1
# [31] = target: Neu5Ac(a2-6)GlcNAc(b1-4)GlcNAc
# Summary of the method: as §1
binder,measurement,setting,value
B1,glycan array binding signal (z-score),[1],-0.109
same,glycan array binding signal (z-score),[2],-1
same,glycan array binding signal (z-score),[3],-0.559
same,glycan array binding signal (z-score),[4],0.106
same,glycan array binding signal (z-score),[5],-0.42
same,glycan array binding signal (z-score),[6],0.446
same,glycan array binding signal (z-score),[7],-1.2
same,glycan array binding signal (z-score),[8],-0.548
same,glycan array binding signal (z-score),[9],-0.205
same,glycan array binding signal (z-score),[10],-0.64
same,glycan array binding signal (z-score),[11],-0.278
same,glycan array binding signal (z-score),[12],-0.221
same,glycan array binding signal (z-score),[13],-0.654
same,glycan array binding signal (z-score),[14],-0.838
same,glycan array binding signal (z-score),[15],0.356
same,glycan array binding signal (z-score),[16],-0.205
same,glycan array binding signal (z-score),[17],1.09
same,glycan array binding signal (z-score),[18],-1.86
same,glycan array binding signal (z-score),[19],0.297
same,glycan array binding signal (z-score),[20],-0.734
same,glycan array binding signal (z-score),[21],0.008
same,glycan array binding signal (z-score),[22],-0.811
same,glycan array binding signal (z-score),[23],-0.809
same,glycan array binding signal (z-score),[24],0.741
same,glycan array binding signal (z-score),[25],-0.657
same,glycan array binding signal (z-score),[26],-0.2
same,glycan array binding signal (z-score),[27],-0.549
same,glycan array binding signal (z-score),[28],-0.638
same,glycan array binding signal (z-score),[29],-1.04
same,glycan array binding signal (z-score),[30],0.642
same,glycan array binding signal (z-score),[31],-0.041

# Pulled one by one from the list above, 2 records:
binder,measurement,setting,value
B1,glycan array binding signal (z-score),[7],-1.2
same,glycan array binding signal (z-score),[27],-0.549
